Measurements as given in PMC3669046.
Numbering of substitutions follows the chain as printed. Results are given in words; binding and its absence hold for the method and conditions named. Binding seen in cells or lysates may run through a third protein. Some entries that bind do so weakly or less than the wild type.

Sequences of proteins named here, by UniProt entry; tags and fusion partners are left off. A change or cut given only in a name is not applied to a line headed by its entry.
UniProt P49407: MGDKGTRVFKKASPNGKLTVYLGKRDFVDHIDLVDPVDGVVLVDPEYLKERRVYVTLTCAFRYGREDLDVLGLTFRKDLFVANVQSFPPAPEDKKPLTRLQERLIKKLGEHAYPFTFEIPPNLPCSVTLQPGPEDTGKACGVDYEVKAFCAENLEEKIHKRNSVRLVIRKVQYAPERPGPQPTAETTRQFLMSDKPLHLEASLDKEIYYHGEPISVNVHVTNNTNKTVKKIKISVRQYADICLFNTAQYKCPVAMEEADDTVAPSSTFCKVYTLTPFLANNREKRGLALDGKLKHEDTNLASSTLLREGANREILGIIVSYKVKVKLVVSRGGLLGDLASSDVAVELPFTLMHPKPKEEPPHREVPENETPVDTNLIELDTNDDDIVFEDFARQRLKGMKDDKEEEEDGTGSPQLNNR

Tests used:
[1] = target: T1, VE-cadherin phosphomimetic mutant (SD), S665D (UniProt P33151); assay: co-IP; HEK-293T co-transfected with VE-cadherin (WT, SV or SD) and CFP-myc-tagged β-arrestin1 (full-length, deleted forms or C-tail); IP fractions analysed by western-blot
T1 sequence: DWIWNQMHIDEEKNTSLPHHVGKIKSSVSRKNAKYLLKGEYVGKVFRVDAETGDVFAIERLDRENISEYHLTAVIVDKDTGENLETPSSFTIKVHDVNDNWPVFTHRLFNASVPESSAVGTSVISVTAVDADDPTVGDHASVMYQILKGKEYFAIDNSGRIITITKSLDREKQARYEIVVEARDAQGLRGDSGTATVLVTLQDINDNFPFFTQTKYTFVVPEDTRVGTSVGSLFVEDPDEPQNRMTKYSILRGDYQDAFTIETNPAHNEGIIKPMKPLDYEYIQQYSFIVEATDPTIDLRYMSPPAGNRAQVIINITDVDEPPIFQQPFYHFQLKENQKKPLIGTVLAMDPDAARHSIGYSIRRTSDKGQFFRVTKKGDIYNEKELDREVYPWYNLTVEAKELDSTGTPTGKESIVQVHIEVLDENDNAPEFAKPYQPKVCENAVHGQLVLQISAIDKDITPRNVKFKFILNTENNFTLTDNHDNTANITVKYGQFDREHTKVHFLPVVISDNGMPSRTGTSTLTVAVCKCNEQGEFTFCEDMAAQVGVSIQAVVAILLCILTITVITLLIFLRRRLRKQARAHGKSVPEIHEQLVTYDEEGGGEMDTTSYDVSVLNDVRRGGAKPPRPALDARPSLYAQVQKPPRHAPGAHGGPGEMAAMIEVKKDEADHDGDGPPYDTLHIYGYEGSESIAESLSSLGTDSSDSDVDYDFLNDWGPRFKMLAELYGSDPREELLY

[2] = target: T2, VE-cadherin wild-type (WT), expressed in HEK-293T (UniProt P33151); assay: as above
T2 sequence: T1 sequence with D618S

[3] = target: T1, VE-cadherin phosphomimetic mutant (SD), S665D; assay: co-IP; competition: HEK-293T co-transfected with VEC SD mutant, a constant amount of full-length myc-βarr1 and increasing concentrations of CFP-myc-tagged β-arrestin1 C-terminus tail; western-blot
[4] = target: T3, VE-cadherin (vascular endothelial cadherin), endogenous in HUVEC (human (endogenous in HUVEC)) (UniProt P33151); assay: co-IP; endogenous proteins in HUVEC; overnight serum starvation, VEGF 50 ng/ml for the indicated times; anti-VE-cadherin and anti-β-arrestin1/2 immunoprecipitates analysed by western-blot
T3 sequence: T1 sequence with D618S

Substance: CFP-myc-tagged β-arrestin1 C-terminus tail (amino acids 375-418) (from UniProt P49407 375-418) (domain or fragment)
- binding [1]: binds

Substance: CFP-myc-tagged β-arrestin1, full-length (1-418) (from UniProt P49407 1-418)
- binding [1]: binds
- binding [2]: binds
- binding [3]: binds

Substance: β-arrestin1, endogenous in HUVEC (from UniProt P49407 1-418)
- binding [4]: binds
